Reference: PMC4947919
Results are given in words; binding and its absence hold for the method and conditions named. Binding seen in cells or lysates may run through a third protein. Binding can be weak; no strength is given.

Target: T1, Annexin A1 (mouse (endogenous in BV-2)) (UniProt P10107)
T1 sequence: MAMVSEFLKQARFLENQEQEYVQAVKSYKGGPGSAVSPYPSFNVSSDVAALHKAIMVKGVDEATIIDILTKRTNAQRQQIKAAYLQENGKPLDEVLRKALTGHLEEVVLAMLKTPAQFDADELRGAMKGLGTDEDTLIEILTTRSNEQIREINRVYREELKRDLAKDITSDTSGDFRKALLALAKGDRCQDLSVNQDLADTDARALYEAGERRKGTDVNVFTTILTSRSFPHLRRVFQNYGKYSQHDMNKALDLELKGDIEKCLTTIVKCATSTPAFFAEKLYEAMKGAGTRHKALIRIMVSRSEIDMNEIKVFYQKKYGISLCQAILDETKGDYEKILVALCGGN
Assay: co-IP; BV-2 microglial cell lysates, control and OGD/R conditions; immunoprecipitation with polyclonal anti-ANXA1 overnight at 4 °C, protein A/G PLUS-agarose 4 h, 5 washes with lysis buffer; immunoblot with anti-PKC; IgG as negative control

binding: binds
Substance: Protein kinase C (mouse (endogenous in BV-2)) (enzyme)
